Reference: US20250331521A1, “NITROGEN-CONTAINING HETEROCYCLIC COMPOUND HAVING AN OXIME GROUP, AGRICULTURAL OR HORTICULTURAL HERBICIDE COMPRISING THE COMPOUND, AND METHOD FOR USING THE COMPOUND OR THE HERBICIDE” (NIHON NOHYAKU CO., LTD., priority 2022, published 2025)
Some entries share one result that the patent states for a list of compounds. Some compounds share one range, which may span the group rather than tell each member.

test system: Barnyard grass (Echinochloa crus-galli); assay: Test Example 1: post-emergence herbicidal effect against paddy weeds; assay type: in vivo; settings: active ingredient concentration 10 ppm; drop treatment in hydroponic medium; 30° C., full light; six days after treatment; compared to non-treatment group
Method: Test Example 1: Test for Post-Emergence Herbicidal Effect Against Paddy Weeds Barnyard grass (Echinochloa crus-galli) was seeded and grown in test tubes containing hydroponic medium in an artificial climate chamber or a phytotron. Agrochemical formulations containing the compounds of the present invention as active ingredients prepared according to Formulation Example 1 were separately diluted with water so that the concentration of the active ingredient would be a predetermined concentration and used for drop treatment of the barnyard grass. The barnyard grass was grown in the artificial climate chamber at 30° C. under full light conditions. Six days after agrochemical treatment, the herbicidal effect was evaluated as compared to the non-treatment group according to the following criteria. Criteria for Herbicidal Effect (Degree of Growth Inhibition) and Phytotoxicity • Score 4 90% to 100% herbicidal effect • Score 3 70% to 89% herbicidal effect • Score 2 40% to 69% herbicidal effect • Score 1 1% to 39% herbicidal effect • Score 0 0% herbicidal effect

Row | SMILES | herbicidal effect against barnyard grass (score, degree of growth inhibition)
1 | CNS(=O)(=O)c1ccc(/C(N)=N/OC(C)C)nc1-c1nc(-c2ccccc2Cl)nn1C [1-30] | 3 (Score 3 70% to 89% herbicidal effect)
2 | CCO/N=C(\N)c1ccc(S(=O)(=O)N(C)C)c(-c2nc(-c3ccccc3Cl)nn2C)n1 [1-31] | 3 (Score 3 70% to 89% herbicidal effect)
3 | CCO/N=C(\N)c1ccc(S(=O)(=O)N(C)C)c(-c2nc(-c3ccccc3)nn2C)n1 [1-32] | 3 (Score 3 70% to 89% herbicidal effect)
4 | CNS(=O)(=O)c1ccc(/C(N)=N/OC)nc1-c1nc(-c2ccc(F)cc2F)nn1C [1-33] | 3 (Score 3 70% to 89% herbicidal effect)
5 | CCO/N=C(\N)c1ccc(S(=O)(=O)NC)c(-c2nc(-c3ccc(F)cc3F)nn2C)n1 [1-34] | 3 (Score 3 70% to 89% herbicidal effect)
6 | CCO/N=C(\N)c1ccc(C(=O)OCC)c(-c2nc(-c3c(F)cccc3F)cn2C)n1 [2-1] | 3 (Score 3 70% to 89% herbicidal effect)
7 | CCO/N=C(\N)c1ccc(C(=O)OCC)c(-c2nc(-c3ccccc3Cl)cn2C)n1 [2-2] | 3 (Score 3 70% to 89% herbicidal effect)
8 | CCO/N=C(\N)c1ccc(C(=O)OCC)c(-c2nc(-c3cccc(C)c3)cn2C)n1 [2-4] | 3 (Score 3 70% to 89% herbicidal effect)
9 | CCO/N=C(\N)c1ccc(C(=O)OCC)c(-c2nc(-c3ccc(C)cc3)cn2C)n1 [2-5] | 3 (Score 3 70% to 89% herbicidal effect)
10 | CCO/N=C(\N)c1ccc(C(=O)OCC)c(-c2nc(-c3ccccc3C(F)(F)F)cn2C)n1 [2-6] | 3 (Score 3 70% to 89% herbicidal effect)
11 | CCO/N=C(\N)c1ccc(C(=O)OCC)c(-c2nc(-c3ccccc3OC)cn2C)n1 [2-9] | 3 (Score 3 70% to 89% herbicidal effect)
12 | CCO/N=C(\N)c1ccc(C(=O)OCC)c(-c2nc(-c3cccc(OC)c3)cn2C)n1 [2-10] | 3 (Score 3 70% to 89% herbicidal effect)
13 | CCO/N=C(\N)c1ccc(C(=O)OCC)c(-c2nc(-c3ccc(OC)cc3)cn2C)n1 [2-11] | 3 (Score 3 70% to 89% herbicidal effect)
14 | CCO/N=C(\N)c1ccc(C(=O)OCC)c(-c2nc(-c3ccccc3F)cn2C)n1 [2-12] | 3 (Score 3 70% to 89% herbicidal effect)
15 | CCO/N=C(\N)c1ccc(C(=O)OCC)c(-c2nc(-c3cccc(F)c3)cn2C)n1 [2-13] | 3 (Score 3 70% to 89% herbicidal effect)
16 | CCO/N=C(\N)c1ccc(C(=O)OCC)c(-c2nc(-c3ccc(F)cc3)cn2C)n1 [2-14] | 3 (Score 3 70% to 89% herbicidal effect)
17 | CCON=C(C)c1ccc(S(=O)(=O)CC(C)=O)c(-c2nc(-c3ccccc3Cl)cn2C)n1 [2-15] | 3 (Score 3 70% to 89% herbicidal effect)
18 | CCON=C(C)c1ccc(S(C)(=O)=O)c(-c2nc(-c3ccccc3Cl)c(Cl)n2C)n1 [2-18] | 3 (Score 3 70% to 89% herbicidal effect)
19 | CCO/N=C(\N)c1ccc(C(=O)OCC)c(-c2nc(-c3ccccc3)cn2C)n1 [2-19] | 3 (Score 3 70% to 89% herbicidal effect)
20 | CCO/N=C(\N)c1ccc(C(=O)OC)c(-c2nc(-c3ccccc3)cn2C)n1 [2-21] | 3 (Score 3 70% to 89% herbicidal effect)
21 | COC(=O)c1ccc(/C(N)=N/OCC(F)(F)F)nc1-c1nc(-c2ccccc2)cn1C [2-22] | 3 (Score 3 70% to 89% herbicidal effect)
22 | CCO/N=C(\N)c1ccc(C(=O)OC)c(-c2nc(-c3ccccc3)c(Br)n2C)n1 [2-23] | 3 (Score 3 70% to 89% herbicidal effect)
23 | CCO/N=C(\N)c1ccc(C(=O)OC)c(-c2nc(-c3ccccc3)c(Cl)n2C)n1 [2-24] | 3 (Score 3 70% to 89% herbicidal effect)
24 | CCO/N=C(\N)c1ccc(C(=O)OCC)c(-c2nc(-c3cccc(F)c3F)cn2C)n1 [2-26] | 3 (Score 3 70% to 89% herbicidal effect)
25 | CCO/N=C(\N)c1ccc(C(=O)OCC)c(-c2nc(-c3ccc(F)cc3F)cn2C)n1 [2-27] | 3 (Score 3 70% to 89% herbicidal effect)
26 | CCO/N=C(\N)c1ccc(C(=O)OCC)c(-c2nc(-c3cc(F)ccc3F)cn2C)n1 [2-28] | 3 (Score 3 70% to 89% herbicidal effect)
27 | CCO/N=C(\N)c1ccc(C(=O)OCC)c(-c2nc(-c3ccccc3C#N)cn2C)n1 [2-29] | 3 (Score 3 70% to 89% herbicidal effect)

Row | SMILES | herbicidal effect against barnyard grass (score, degree of growth inhibition)
28 | CCO/N=C(\N)c1ccc(S(C)(=O)=O)c(-c2nc(-c3ccccc3Cl)cn2C)n1 [2-31] | 3 (Score 3 70% to 89% herbicidal effect)
29 | CCO/N=C(\N)c1ccc(S(=O)(=O)NC)c(-n2nc(-c3cccc(F)c3F)nc2C)n1 [3-1] | 3 (Score 3 70% to 89% herbicidal effect)
30 | CCO/N=C(\N)c1ccc(S(=O)(=O)NC)c(-n2nc(-c3cccc(F)c3Cl)nc2C)n1 [3-2] | 3 (Score 3 70% to 89% herbicidal effect)
31 | CCO/N=C(\N)c1ccc(S(=O)(=O)NC)c(-n2nc(-c3ccccc3Cl)nc2C)n1 [3-4] | 3 (Score 3 70% to 89% herbicidal effect)
32 | CCO/N=C(\N)c1ccc(S(=O)(=O)NC)c(-n2nc(-c3ccccc3Br)nc2C)n1 [3-5] | 3 (Score 3 70% to 89% herbicidal effect)
33 | CCO/N=C(\N)c1ccc(S(=O)(=O)NC)c(-n2nc(-c3ccc(F)cc3Cl)nc2C)n1 [3-6] | 3 (Score 3 70% to 89% herbicidal effect)
34 | CNS(=O)(=O)c1ccc(/C(N)=N/OC)nc1-n1nc(-c2cccc(F)c2)nc1C [3-7] | 3 (Score 3 70% to 89% herbicidal effect)
35 | CNS(=O)(=O)c1ccc(/C(N)=N/OC)nc1-n1nc(-c2c(F)cccc2F)nc1C [3-8] | 3 (Score 3 70% to 89% herbicidal effect)
36 | CCO/N=C(\N)c1ccc(S(C)(=O)=O)c(-n2nc(-c3ccccc3)nc2C)n1 [3-9] | 3 (Score 3 70% to 89% herbicidal effect)
37 | CCO/N=C(\N)c1ccc(S(=O)(=O)NC)c(-n2nc(-c3ccccc3NC(C)=O)nc2C)n1 [3-10] | 3 (Score 3 70% to 89% herbicidal effect)
38 | CCO/N=C(\N)c1ccc(S(=O)(=O)NC)c(-n2nc(-c3c(F)cccc3F)nc2C)n1 [3-11] | 3 (Score 3 70% to 89% herbicidal effect)
39 | CCO/N=C(\N)c1ccc(S(=O)(=O)NC)c(-n2nc(-c3ccccc3F)nc2C)n1 [3-12] | 3 (Score 3 70% to 89% herbicidal effect)
40 | CCO/N=C(\N)c1ccc(S(=O)(=O)NC)c(-n2nc(-c3c(F)cc(F)cc3F)nc2C)n1 [3-14] | 3 (Score 3 70% to 89% herbicidal effect)
41 | CCO/N=C(\N)c1ccc(S(=O)(=O)NC)c(-n2nc(-c3ccc(F)cc3F)nc2C)n1 [3-15] | 3 (Score 3 70% to 89% herbicidal effect)
42 | CCO/N=C(\N)c1ccc(S(=O)(=O)NC)c(-n2nc(-c3ccccc3[N+](=O)[O-])nc2C)n1 [3-16] | 3 (Score 3 70% to 89% herbicidal effect)
43 | CNS(=O)(=O)c1ccc(/C(N)=N/OC)nc1-n1nc(-c2ccccc2Cl)nc1C [3-17] | 3 (Score 3 70% to 89% herbicidal effect)
44 | CCO/N=C(\N)c1ccc(S(=O)(=O)NC)c(-n2nc(-c3ccccc3OC)nc2C)n1 [3-18] | 3 (Score 3 70% to 89% herbicidal effect)
45 | CCO/N=C(\N)c1ccc(S(=O)(=O)NC)c(-n2nc(-c3ccccc3C#N)nc2C)n1 [3-19] | 3 (Score 3 70% to 89% herbicidal effect)
46 | CNS(=O)(=O)c1ccc(/C(N)=N/OC)nc1-n1nc(-c2cccc(Cl)c2)nc1C [3-20] | 3 (Score 3 70% to 89% herbicidal effect)
47 | CNS(=O)(=O)c1ccc(/C(N)=N/OC)nc1-n1nc(-c2ccccc2)nc1C [3-21] | 3 (Score 3 70% to 89% herbicidal effect)
48 | CCO/N=C(\N)c1ccc(S(=O)(=O)NC)c(-n2nc(C3CCCCC3)nc2C)n1 [3-114] | 3 (Score 3 70% to 89% herbicidal effect)
49 | CNS(=O)(=O)c1ccc(/C(N)=N/OC)nc1-n1nc(-c2ccccn2)nc1C [3-115] | 3 (Score 3 70% to 89% herbicidal effect)
50 | CNS(=O)(=O)c1ccc(/C(N)=N/OC)nc1-n1nc(-c2ccncc2Cl)nc1C [3-116] | 3 (Score 3 70% to 89% herbicidal effect)
51 | CCO/N=C(\N)c1ccc(S(=O)(=O)NC)c(-n2nc(-c3ccncc3Cl)nc2C)n1 [3-117] | 3 (Score 3 70% to 89% herbicidal effect)
52 | CNS(=O)(=O)c1ccc(/C(N)=N/OC(C)C)nc1-n1nc(-c2ccncc2Cl)nc1C [3-118] | 3 (Score 3 70% to 89% herbicidal effect)
53 | CCO/N=C(\N)c1ccc(S(=O)(=O)NC)c(-n2nc(-c3cccnc3Cl)nc2C)n1 [3-119] | 3 (Score 3 70% to 89% herbicidal effect)
